Here are results for nine substances from patent US10266568B2, “Cyclic citrullinated peptide, rheumatoid arthritis diagnosis composition including the same, rheumatoid arthritis diagnosis method using the peptide or the composition, and method of screening diagnostic marker for rheumatoid arthritis” (KOREA INSTITUTE OF SCIENCE AND TECHNOLOGY, priority 2015, dated 2019).

This data set relates to autoimmune antibodies (anti-CCP antibody) in serum samples. Put plainly: Sensitivity, specificity, AUC, PPR and NPR from ROC curves of the ELISA results; McNemer test between assays. Set-up: species or system human; AUC: unit not given beside the values. The note with it: for AUC: ROC curve. The method, then: A ROC curve as a plot of the relation between sensitivity and specificity in a specific diagnostic test may represent the diagnostic accuracy of a specific diagnostic model. The ROC may be a graph generated by plotting sensitivity of all possible cut-off points for a specific diagnostic model on Y-axis against 1-specificity on X-axis. The specific diagnostic model may be a diagnostic model for rheumatoid arthritis in which a specific level of anti-CCP antibody is determined as a cut-off level for positivity with disease (abnormal) and/or negativity without disease (normal patients). The larger the area under the ROC curve (AUC), the higher the accuracy of the determined diagnostic model. With the assumption that a total area of the ROC curve is 1, a diagnostic model may be determined as having high accuracy when the AUC is 0.5 or greater, 0.6 or greater, 0.7 or greater, 0.8 or greater, or 0.9 or greater. A diagnostic model may be determined as a higher accuracy when it is closer to the upper left corner of the ROC.
The term “sensitivity” may refer to the probability that an individual with the disease will test positive in a specific diagnostic model.
The term “specificity” may refer to the probability that a disease-free individual will test negative in a specific diagnostic model.
FIGS. 2A and 2B are graphs of sensitivity and specificity, respectively, of the peptides treated in the samples of various types of arthritis patients, calculated based on the ROC curves plotted using the results of Table 3. […] Therefore, it was identified that the C-terminal domain of amino acid sequence of CCP may play an important role in the binding of autoimmune antibodies.
FIGS. 4A, 4B, and 4C show ROC curves of CCP, and CCP10P and CCP11A as modified CCPs including substituted amino acid, respectively, in RA patient samples with respect to normal patient samples. FIGS. 4D, 4E, and 4F show ROC curves of CCP, and CCP10P and CCP11A, respectively, in RA patient samples with respect to OA patient samples. AUCs, positive prediction rates (PPR, %), and negative prediction rates (NPR, %) obtained from the ROC curves of FIGS. 4A to 4F are shown in Table 5.
The statistical significances were calculated using the McNemer test. The McNemer test is a test on a 2×2 table to calculate a difference between paired two tests and a statistical significance level. […] Referring to FIG. 5B, a p-value between the results of the two assays with CCP and CCP10P in the RA patient samples with respect to OA patient samples as control group was about 0.004, and a difference therebetween was about 37.78%. A p-value between the results of the two assays with CCP and CCP11A in the RA patient samples with respect to OA patient samples was about 0.04, and a difference therebetween was about 26.67%.

Where [1] appears, read: RA patient samples, OA patient samples as control group.
The mark [2] stands for this setting: RA patient samples, control group Normal.
The mark [3] stands for this setting: RA patient samples, control group OA.
The mark [4] stands for this setting: with respect to the RA, normal control.
Setting [5] is: OA patient samples with respect to normal.
Setting [6] is: SLE patient samples with respect to normal.

For “CCP10P: HCHQESTXGPSRGCG; CCP with 10th amino acid arginine substituted by proline”, the “Difference between the results of the assay with CCP and this peptide (McNemer test)” value (“Difference between the results” for short) under setting [1] is on record as “about 37.78%”. Also, under setting [2], the “NPR (negative prediction rate)” value is listed as 76%, the “PPR (positive prediction rate)” value is on record as 83.3%, the Sensitivity is listed as 83.3% and the AUC worked out at 0.8370. Further, under setting [3], the “NPR (negative prediction rate)” value was 93.3%, the “PPR (positive prediction rate)” value is recorded as 30%, the Sensitivity came out at 30.0% and the Specificity turned out to be 93.3%. For the same substance, under setting [3], the AUC is given as 0.5030. Also, the “Difference between the results” value (RA patient samples, normal patient samples as control group) was determined as 0.0%. For the same substance, the “Specificity lower than CCP by” value under setting [4] is given as “about 11.6%”.

Consider “CCPPAP: HCHQESTXGPAPGCG; CCP with 10th, 11th, 12th amino acids substituted by proline, alanine, proline”, for which the Specificity entry under setting [2] is on record as “about 100%”.

With “CCP12P: HCHQESTXGRSPGCG; CCP with 12th amino acid substituted by proline”, the Specificity entry under setting [2] is on record as “about 100%”.

As to “RF: rheumatoid factor peptide EGLHNHY (listed as Homo sapiens) [reference compound]”, under setting [2], the Sensitivity result was “lower sensitivity” and the Specificity result was “lower specificity than CCP”.

Take “HSH17: HSHQESTXGRSRGSGZZ; aminocaproic acid (Z) added to C-terminal of HSH15”: the Sensitivity result reads like this: under setting [5], “about 100%”; under setting [2], “about 100%”; under setting [6], “about 100%”. Further, the Specificity runs as follows: under setting [5], ~73.1%; under setting [2], “about 69.2%”; under setting [6], “about 69.2%”.

As for “CCP11A: HCHQESTXGRARGCG; CCP with 11th amino acid serine substituted by alanine”, the “Difference between the results” value under setting [1] was “about 26.67%”. Besides, the “PPR (positive prediction rate)” value runs as follows: under setting [2], 86.7%; under setting [3], 63.3%. Moreover, the Sensitivity came to 86.7% under setting [2] and 63.3% under setting [3]. The “AUC larger than that of CCP by” value runs as follows: (RA patients with respect to OA patient samples) “about 0.0797”; (RA patients with respect to normal patient samples) “about 0.0038”. The “Specificity higher than CCP by” value under setting [4] is “about 11.5%”.

For the substance “ZZH17: ZZHSHQESTXGRSRGSG; aminocaproic acid (Z) added to N-terminal of HSH15”, the Specificity result under setting [2] was “about 80.8%”.

For “ZZH19: ZZHSHQESTXGRSRGSGZZ; aminocaproic acid (Z) added to N- and C-terminals of HSH15”, the Specificity entry under setting [2] is recorded as “about 84.6%”.

Take “CCP: cyclic citrullinated peptide HCHQESTXGRSRGCG, X citrulline [reference compound]”: under setting [5], the Sensitivity entry is “about 93.3%” and the Specificity result is recorded as “about 88.5%”. For the same substance, under setting [2], the “NPR (negative prediction rate)” value is on record as 88%, the “PPR (positive prediction rate)” value is reported as 93.3% and the AUC is reported as 0.9718. In addition, under setting [3], the “NPR (negative prediction rate)” value is given as 60%, the “PPR (positive prediction rate)” value is 70%, the Sensitivity is reported as 70.0% and the Specificity is 60.0%. In addition, under setting [6], the Sensitivity result was “about 100%” and the Specificity result was “about 84.6%”.
